{"source": "patent US4002754A", "about": "“Substituted piperazinyliminorifamycins” (Gruppo Lepetit S.p.A., priority 1975, dated 1977)", "system": "Mycobacterium tuberculosis H37 Rv", "experiment": "minimal inhibitory concentration (antimicrobial activity)", "type": "cell-based", "conditions": "H37RV, read-out: minimal inhibitory concentration", "text": "The unexpected biological characteristics of the novel rifamycins have been evidenced by considering the survival time after a daily administration of rifampicin and a once-a-week administration of the same dose level per os of 3-[4-(2-propenyl)-1-piperazinyl]iminorifamycin SV (hereinafter referred to as \"propenyl derivative\") to mice infected with Mycobacterium tuberculosis H37 Rv. […] For instance, the value of the minimal inhibitory concentration of propenyl derivative against Mycobacterium tuberculosis H37 Rv is 0.02 μg/ml while that of rifampicin is 0.5 μg/ml."}
{"smiles": "CO[C@H]1/C=C/O[C@@]2(C)Oc3c(C)c(O)c4c(O)c(c(/C=N/N5CCN(C)CC5)c(O)c4c3C2=O)NC(=O)/C(C)=C\\C=C\\[C@H](C)[C@H](O)[C@@H](C)[C@@H](O)[C@@H](C)[C@H](OC(C)=O)[C@@H]1C", "note": "[rifampicin, reference compound]", "values": [{"measurement": "MIC", "value": 0.5, "unit": "µg/mL"}]}
